## Library screening results

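Viability assay of Plasmodium falciparum sporozoites; the read-out is not stated. The concentration is filed as 10 mM, unlikely as a test dose, so the dose is not known. Higher reads as lower viability (inferred: compounds with an IC50 in retests scored well above the rest). Strong results were mostly tested again. Size under these conditions: about 34,000 compounds, about 280 of them at 50% or above in at least one test.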

Results are given as percent effect. The controls that fix the scale are not given in the record; negative values are as filed. This is an unselected part of the compounds tested. Two or more numbers in one place are separate tests of the same structure; such repeats can differ widely.

| SMILES | effect |
|---|---|
| `CC(C)COC(C)C(=O)NCc1ccc(OC(C)C)nc1` (stereo not shown) | -3.931% |
| `O=C(O)C(F)(F)F.O=C(O)C(F)(F)F.O=S(=O)(C1CC1)N1CCC2(CCCN(Cc3ccccn3)C2)C1` (stereo not shown) | 13.17% |
| `O=C(O)c1nnn(-c2ccccc2)c1-c1ccncc1` | -10.63% |
| `CCC1CN(C(=O)Nc2cnc3c(cnn3C(C)C)c2)CCO1` (stereo not shown) | 6.934% |
| `[H][C@@]12OCCN(S(=O)(=O)CC)[C@@]1([H])CC[C@H]2OCC1CCCC1` | 7.035% |
| `Cc1cc(C)nc(N2CCCC(C)(c3[nH]ncc3C(=O)N(C)C)C2)n1` (stereo not shown) | 7.315% |
| `CC(C)N1CCN(C)CC1c1nnc2ccc(C(=O)N3CCCC3)cn12` (stereo not shown) | -21.67% |
| `Cc1nnc2ccc(NCC3(N4CCCCC4)CCOCC3)nn12` | -4.135% |
| `O=C(c1cccnc1)N1CCCC(c2ccnc3nccn23)C1` (stereo not shown) | -4.662% |
| `O=C(NCC1CCOCC1)c1cc(-c2ccncc2)c2cnccc2n1` | 10.78% |
| `CCNc1cc2c(nn1)CCN(C(=O)c1ccc3cc[nH]c3c1)C2` | 5.111% |
| `COC(=O)CCNC(=O)c1c[nH]cc1-c1ccccc1OC` | 7.456% |
| `CC(=O)N[C@@H]1CN(C(=O)Cc2coc3cc(C)ccc23)C[C@H]1O` | -1.227% |
| `CC(C)NC(=O)N1CCC2(CC(=O)N(c3ccccc3)C2)C1` (stereo not shown) | -3.163% |
| `Cc1cc(C)n(C2CCCN(C(=O)CCCNc3ncccn3)C2)n1` (stereo not shown) | -16.47% |
| `CN(C)Cc1ccnc(C2CN(Cc3c(F)cccc3F)CCO2)n1` (stereo not shown) | 10.13% |
| `Cc1cccc2sc(NC(=O)CN3CCCC(O)(CO)C3)nc12` (stereo not shown) | -25.02% & -31.47% |
| `COCCOc1ccc(F)cc1NCc1nc2ccccc2n1C` | 8.05% & -7.699% & 5.859% |
| `CC(=O)Nc1ccc(-c2cn(CCn3c(C)cc(C)nc3=O)nn2)cc1` | -15.61% |
| `CN(C(=O)COC1CCCCC1)C1CCN(CC2CCOC2)CC1` (stereo not shown) | -1.523% |
| `Cc1cc(N2CCCN(c3ccnc(C)c3)CC2)ccn1` | -15.02% |
| `Cn1ccnc1CN1CCC2(CCC(=O)N2CCN2CCCC2)CC1.O=C(O)C(F)(F)F.O=C(O)C(F)(F)F` | -10.62% |
| `CCOc1ccc(Cl)c(C(=O)N2CCN(CC(C)(C)O)CC2)n1` | 0.8458% |
| `CN1CCOC(CNCc2coc(-c3ccccc3)n2)C1` (stereo not shown) | -0.7401% |
| `Cc1[nH]ncc1C(=O)N1CCCC(c2cc(C(F)(F)F)[nH]n2)C1` (stereo not shown) | 6.266% |
| `O=C(O)c1cc2c(nc1O)CC(c1cccc(Cl)c1)CC2=O` (stereo not shown) | -0.8772% |
| `O=C(c1cc2c(s1)CCC2)N1CCCCC1Cn1cccn1` (stereo not shown) | -7.769% |
| `O=C(c1cc2c(s1)CCC2)N1CCC(c2cnccn2)CC1` | 9.429% |
| `Cc1ccc(CN2CCCC3(CCCC(=O)N3C)C2)s1.O=C(O)C(F)(F)F` (stereo not shown) | -3.663% |
| `CN1CCN(Cc2cnc3n2CCN(C(=O)c2ccccn2)C3)CC1` | 7.407% |
| `COc1c(C)cnc(CN2CCCCC2Cn2nc(C)nc2C)c1C` (stereo not shown) | 9.293% |
| `CCc1cc(NC2CCN(S(C)(=O)=O)CC2)n2nc(C)c(C)c2n1` | 5.599% |
| `CC(C(=O)NCC(F)(F)F)N1CCC(N2CCN(C)C2=O)CC1` (stereo not shown) | 2.333% |
| `CCC(C)C(=O)NCCc1nc(C(F)(F)F)cs1` (stereo not shown) | -12.91% |
| `NC(=O)C1CCN(C(=O)CSC2CCCc3ccccc32)CC1` (stereo not shown) | -2.959% |
| `CC(C)[C@H](NC(=O)NC1CCS(=O)(=O)C1)C(=O)Nc1cccnc1` (stereo partly shown) | -5.702% |
| `COc1cc(CNC(C)Cn2cccn2)cc2c1OCCO2.Cl` (stereo not shown) | -0.5205% |
| `[H][C@@]12C[C@H](C(=O)NC3CCC3)[C@@]([H])(CN(C(=O)Nc3ccc(CC)cc3)C1)O2` | 8.134% |
| `CCN1CCN(C)C(=O)C12CCN(Cc1ccsc1)CC2.O=C(O)C(F)(F)F` | -4.619% |
| `CCOC(=O)CC1(Nc2nc(C)nc3c2cnn3C)CCCCC1` | 3.402% |
| `O=C(NCCc1cccc(F)c1)NCC(O)c1cccc(F)c1` (stereo not shown) | -15.68% |
| `O=C(NCCN1CCc2ccccc2C1)c1scnc1Cl` | -2.2% |
| `Cc1ccc(CSCCn2nc3ccccn3c2=O)cc1` | -3.122% |
| `OC(CN1CCC(c2ccn[nH]2)CC1)c1ccccc1F` (stereo not shown) | 9.352% |
| `O=C(N1CCC2(CC1)[C@H](O)C[C@@H]2O)C1(c2ccccc2F)CC1` | -21.38% |
| `O=C(NCCNc1ccc(C(F)(F)F)cn1)c1ccoc1` | 2.829% |
| `CN(c1nccc(-c2cnc3sc(Cl)cn3c2=O)n1)C1CCCCC1` | -6.012% |
| `CN(Cc1cn(-c2ccccc2)nn1)C1CCCN(c2cccnn2)C1` (stereo not shown) | 12.04% |
| `CN(CC(=O)Nc1ccncc1)C1CCCN(c2cccnn2)C1` (stereo not shown) | 4.247% |
| `CC(C)C(C)NC(=O)Nc1ccc(F)c(C(N)=O)c1` (stereo not shown) | 5.402% |
| `CCCn1nccc1C(=O)N1CCCN(CCCc2ccccc2)CC1` | -15.06% |
| `FC(F)(F)c1ccccc1CCC1CCCN(Cc2cscn2)C1` (stereo not shown) | 13.38% |
| `CC(C)Cc1cc(NC(=O)c2ccncc2)n(C)n1` | -7.092% |
| `CS(=O)(=O)NC(=O)c1ccn(-c2ccc(Cl)c(Cl)c2)n1` | 5.796% |
| `CC(C)c1ccc(OCCNC(=O)N2CCS(=O)(=O)CC2)cc1` | -1.075% |
| `O=C(O)C(F)(F)F.[H][C@@]12CCN(S(=O)(=O)c3ccc(C)cc3)C[C@]1([H])[C@@H](CN(C)C)OC2` | -5.113% |
| `CCC(C)N(C)S(=O)(=O)c1ccc(CCNC(C)=O)s1` (stereo not shown) | -7.615% |
| `COc1ccc(CNC(=O)Cc2csc(C(C)=O)c2)cc1` | 4.52% |
| `Cc1nc(-c2nnc[nH]2)sc1C(=O)N1CCCC1Cn1cccn1` (stereo not shown) | 1.228% |
| `CCCn1cc2c(C(F)F)cc(SCC(=O)O)nc2n1` | -10.81% |
| `Cc1nn(C)cc1C(=O)Nc1cccc(CN2CCC(CO)CC2)c1` | -3.044% |
| `CC(NCc1cccc(Cl)c1)c1ccc(OCC(=O)NC2CC2)cc1` (stereo not shown) | 0.2692% |
| `COC(=O)c1cccc(C2CNCCN2C(C)=O)c1` (stereo not shown) | 12.95% |
| `CN(C)CCN1CCCC12CCN(C(=O)c1ccncc1)CC2.O=C(O)C(F)(F)F.O=C(O)C(F)(F)F` | -6.679% & -18% & -15.53% |
| `Cc1cnn(CCC(=O)N2CCN(c3nccs3)CC2)c1` | 13.31% |
| `[H][C@@]12COC[C@]1([H])[C@@H](OCC1CCOCC1)CN2Cc1ccco1` | -18.06% |
| `Cc1nc(CNC(=O)Cn2nc(-c3ccc(F)cc3)oc2=O)cs1` | -7.42% |
| `Cc1cccnc1NCCNC(=O)C1CCN(Cc2ccco2)CC1` | -11.95% |
| `Cc1cc(C)nc(C2CCCNC2)n1.Cl.Cl` (stereo not shown) | 16.42% |
| `CC(C)c1nnc2n1CCN(Cc1nc(-c3ccoc3)no1)C2` | 6.61% |
| `Cc1ccc([C@@H]2CN(S(=O)(=O)N(C)C)C[C@H]2N(C)C)cc1` | -0.692% |
| `Cc1ccc(S(=O)(=O)Nc2ccc(C)c(C(=O)O)c2)s1` | -0.7018% |
| `O=C(CN1CCCC1c1cccs1)N1CCc2sccc2C1` (stereo not shown) | 13.46% |
| `CN(C)CCCNC(=O)c1ccccc1NC(=O)c1ccccc1Cl` | -12% |
| `COCCOc1ccc(S(=O)(=O)Nc2cccc(O)c2F)cc1C` | 65.91% & 54.13% |
| `O=C(NCC1(C(=O)O)CCC1)c1nnn(-c2ccc(F)cc2)c1C1CC1` | -6.476% |
| `Cc1nn(C)c(Cl)c1C1CCCN1C(=O)c1cccc(C#N)c1` (stereo not shown) | 2.907% |
| `COc1ccc(CN2CCCC2Cn2nc(C)nc2C)cc1F` (stereo not shown) | -13.6% |
| `CN1CCCC(c2cccc(-c3ccccc3F)n2)C1` (stereo not shown) | 8.213% |
| `COc1c(C)cnc(CSc2nnc(NC3CC3)s2)c1C` | 1.961% |

Repeated from the top, 8 entries:

| SMILES | effect |
|---|---|
| `CC(C)COC(C)C(=O)NCc1ccc(OC(C)C)nc1` (stereo not shown) | -3.931% |
| `O=C(O)C(F)(F)F.O=C(O)C(F)(F)F.O=S(=O)(C1CC1)N1CCC2(CCCN(Cc3ccccn3)C2)C1` (stereo not shown) | 13.17% |
| `O=C(O)c1nnn(-c2ccccc2)c1-c1ccncc1` | -10.63% |
| `CCC1CN(C(=O)Nc2cnc3c(cnn3C(C)C)c2)CCO1` (stereo not shown) | 6.934% |
| `[H][C@@]12OCCN(S(=O)(=O)CC)[C@@]1([H])CC[C@H]2OCC1CCCC1` | 7.035% |
| `Cc1cc(C)nc(N2CCCC(C)(c3[nH]ncc3C(=O)N(C)C)C2)n1` (stereo not shown) | 7.315% |
| `CC(C)N1CCN(C)CC1c1nnc2ccc(C(=O)N3CCCC3)cn12` (stereo not shown) | -21.67% |
| `Cc1nnc2ccc(NCC3(N4CCCCC4)CCOCC3)nn12` | -4.135% |

From ChEMBL document CHEMBL3988442, “University of Dundee, Small-Polar-MMV Screening Library” (2021).